The other results are listed elsewhere or left out. Potency and affinity values are given separately.

As a reminder, the Inhibition is the share of the control response that was lost under treatment. The low end stands for little suppression, the high end for strong suppression.

The assay concerns Acinetobacter baumannii. To be noted: Concentration 20 uM; ASSAY_TEST Inhibition of Bacterial Growth; detection method Absorption (OD600); MEDIA CAMHB; plate type 384well; NBS; CORNING #3640; time 18 hr.
Compound `CCCC(C)(COC(N)=O)COC(=O)NC(C)C` (stereo not given) [CARISOPRODOL] came in with an Inhibition of 6.33%. As to `COc1cc2c(cc1OC)[C@@]13CCN4CC5=CCO[C@H]6CC(=O)N2[C@H]1[C@H]6[C@H]5C[C@H]43` [BRUCINE], the Inhibition was 30.1%.

`CCCCCNC(=N)N/N=C/c1c[nH]c2ccc(OC)cc12.O=C(O)/C=C\C(=O)O` [TEGASEROD MALEATE] registered an Inhibition of 27.3%. Then `NC(=O)OCCCc1ccccc1` [PHENPROBAMATE], with 19.95%; and `Cc1ccnc2c1NC(=O)c1cccnc1N2C1CC1` [NEVIRAPINE], with 29.17%; and `N=C(NCc1ccc(Cl)cc1)SCCCc1c[nH]cn1` [CLOBENPROPIT], with 28.35%. Then `CN1CCN(C2=Nc3cc(Cl)ccc3Nc3ccccc32)CC1` [CLOZAPINE], with 17.19%; and `Brc1c(NC2=NCCN2)ccc2nccnc12` [BRIMONIDINE], with 22.06%; and `CN1CC[C@@]23CCCC[C@@H]2[C@@H]1Cc1ccc(O)cc13.O=C(O)C(O)C(O)C(=O)O`, with 17.08%. The same measure for `Cl.O=C1CC[C@@]2(O)[C@H]3Cc4ccc(O)c5c4[C@@]2(CCN3CC2CC2)[C@H]1O5` [NALTREXONE HYDROCHLORIDE]: 25.96%; for `CCN(CC)CCOC(=O)C(O)(c1ccccc1)c1ccccc1.Cl`: 22.1%. Compound `c1ccc2c3c([nH]c2c1)CNCC3` [TRYPTOLINE] registered an Inhibition of 22.02%.

In turn, `CN(C)CCc1c[nH]c2ccc(Cn3cncn3)cc12.O=C(O)c1ccccc1` [RIZATRIPTAN BENZOATE] gave an Inhibition of 21.33%. `CC(=O)CC(c1ccccc1)c1c([O-])c2ccccc2oc1=O.[Na+]` (stereo not given) [WARFARIN SODIUM] yielded an Inhibition of 8.67%. Compound `C=C(C)[C@@H]1[C@H]2OC(=O)[C@@H]1[C@]1(O)C[C@H]3O[C@]34C(=O)O[C@H]2[C@]14C.CC(C)(O)[C@@H]1[C@H]2OC(=O)[C@@H]1[C@]1(O)C[C@H]3O[C@]34C(=O)O[C@H]2[C@]14C` yielded an Inhibition of 14.4%. `Br.COc1ccc2c(c1)[C@]13CCCC[C@@H]1[C@H](C2)N(C)CC3.O` [DEXTROMETHORPHAN HYDROBROMIDE] had an Inhibition of 19.84%. On to `CC(C)C(=O)Nc1ccc([N+](=O)[O-])c(C(F)(F)F)c1` [FLUTAMIDE], for which the Inhibition was found to be 31.86%. On to `Br.Br.CN1CC[C@]2(c3cccc(O)c3)Cc3nc4ccccc4cc3C[C@H]2C1.O`, for which the Inhibition stood at 30.58%. `O.O=P1(N(CCCl)CCCl)NCCCO1` (stereo not given) [CYCLOPHOSPHAMIDE] gave an Inhibition of 0.33%. Regarding `CNCC(O)c1ccc(O)cc1` (stereo not given) [OXEDRINE], the Inhibition was 11.3%. `CN1C(=O)COc2c(C(=O)NC3CN4CCC3CC4)cc(Cl)cc21.Cl` (stereo not given) returned an Inhibition of 29.29%.

As for `CC(NC(C)(C)C)C(=O)c1cccc(Cl)c1.Cl` (stereo not given) [BUPROPION HYDROCHLORIDE], the Inhibition is listed as 9.05%. The compound `C#C[C@]1(O)CC[C@H]2[C@@H]3CCC4=CC(=O)CC[C@@H]4[C@H]3CC[C@@]21C` [NORETHINDRONE] displayed an Inhibition of 8.92%.

Take `CNS(=O)(=O)Cc1ccc2[nH]cc(CCN(C)C)c2c1.O=C(O)CCC(=O)O` [SUMATRIPTAN SUCCINATE]: the Inhibition amounted to 16.66%. In turn, `C[N+]1(C)CCC(OC(=O)C(O)(c2ccccc2)C2CCCC2)C1.[Br-]` (stereo not given) [GLYCOPYRRONIUM BROMIDE] gave an Inhibition of 23.88%. Then `COc1cc(-c2ccc(=O)[nH]n2)ccc1OC(F)F` [ZARDAVERINE], with 22%; and `CC[C@]1(O)CC[C@H]2[C@@H]3CCC4=CCCC[C@@H]4[C@H]3CC[C@@]21C` [ETHYLESTRENOL], with 5.48%. `Cl.NCCc1ccc(O)c(O)c1` [DOPAMINE HYDROCHLORIDE]: the Inhibition is 19.73%.

`NC1=NC(=O)C(c2ccccc2)O1` (stereo not given) [PEMOLINE] displayed an Inhibition of 28.09%. `CN1CCN2c3ncccc3Cc3ccccc3C2C1` (stereo not given) [MIRTAZAPINE] returned an Inhibition of 8.49%. In turn, `CCCN1C[C@H](CSC)C[C@@H]2c3cccc4[nH]cc(c34)C[C@H]21.CS(=O)(=O)O` [PERGOLIDE MESYLATE] returned an Inhibition of 29.64%. The compound `CNCCC(Oc1ccc(C(F)(F)F)cc1)c1ccccc1.Cl` (stereo not given) [FLUOXETINE HYDROCHLORIDE] displayed an Inhibition of 17.55%. Compound `CN1CCN(C(=O)O[C@H]2c3nccnc3C(=O)N2c2ccc(Cl)cn2)CC1` [ESZOPICLONE] gave an Inhibition of 4.49%. Turning to `O=C1Nc2ccc(Cl)cc2C(c2ccccc2Cl)=NC1O` (stereo not given) [LORAZEPAM], the Inhibition is reported as 6.82%. Then `c1ccc2c(c1)Nc1ccccc1S2` [PHENOTHIAZINE], with 6.97%; and `C[C@]12CC[C@H](O)CC1=CC[C@@H]1[C@@H]2CC[C@@]2(C)[C@H]1CC[C@]2(C)O` [METHANDRIOL], with 3.72%; and `COC(=O)C[C@](O)(CCCC(C)(C)O)C(=O)O[C@@H]1C(OC)=C[C@]23CCCN2CCc2cc4c(cc2[C@H]13)OCO4` [OMACETAXINE MEPESUCCINATE], with 6.01%.

On to `C[C@]12CC(C=O)=C(O)C[C@@H]1CC[C@@H]1[C@@H]2CC[C@@]2(C)[C@H]1CC[C@]2(C)O`, for which the Inhibition was determined as 14.03%. `CC(C)N(CCC(C(N)=O)(c1ccccc1)c1ccccn1)C(C)C.O=P(O)(O)O` (stereo not given) [DISOPYRAMIDE PHOSPHATE] had an Inhibition of 26.82%.

`c1ccc(Cn2ccnc2)cc1` displayed an Inhibition of 19.13%. In the case of `CC(C)NCC(O)COc1cccc2[nH]ccc12` (stereo not given) [PINDOLOL], the Inhibition is on record as 24.44%. The same measure for `CCC(COC(=O)c1cc(OC)c(OC)c(OC)c1)(c1ccccc1)N(C)C.O=C(O)/C=C\C(=O)O` (stereo not given): 13.35%; for `CC(C)c1cccc(C(C)C)c1O` [PROPOFOL]: 17.57%; for `C[C@H](CCC(=O)O)[C@H]1CC[C@H]2[C@@H]3[C@@H](O)C[C@@H]4C[C@H](O)CC[C@]4(C)[C@H]3CC[C@]12C` [URSODIOL]: 6.14%.

On to `CN[C@@H]1C[C@@H](c2ccc(Cl)c(Cl)c2)c2ccccc21.Cl` [INDATRALINE HYDROCHLORIDE], for which the Inhibition is reported as 11.95%.

For the origin of these results see ChEMBL document CHEMBL4513141, “CO-ADD screening of NIH (USA) - Clinical Collection” (2021).
